Laboratory results: PubChem BioAssay AID485314 (National Center for Advancing Translational Sciences (NCATS), 2010)
About 4,500 (1.3%) of roughly 340,000 compounds were called active. The inconclusive results got no clear call from the source; some entries with a clear call stand among them for comparison. Calls come from the whole dose curve; as a rule, active = well fitted inhibition curve with a large enough effect; inconclusive = small, poorly fitted or top-dose-only effect, or another doubt; inactive = no such curve, though single readings can be large or run the other way. A potency beside an inconclusive call is a rough fit, not a confirmed value.

Each compound was assayed against DNA polymerase beta (Homo sapiens) (UniProt P06746) (assay: qHTS Assay for Inhibitors of DNA Polymerase Beta). Settings: Pol beta primer extension/strand displacement, fluorescence kinetic; activity change, negative = inhibition: at 114 µM (top of the series).
In short: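 Enzyme-only controls used 10 nM Pol beta; buffer lacking enzyme served as negative control. Compound preincubated 15 min, then 50 nM substrate added; 0 and 10 min reads at room temperature.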
% is set by controls: 0 for no effect and ±100 for the full control effect; potency is the fitted concentration of half-maximal effect.

SMILES	Potency	activity change, negative = inhibition
COc1cc(CSc2ncn[nH]2)c(OC)cc1CSc1ncn[nH]1	inconclusive: 79.4 µM [inhibitor, single point]	
O=C(O)CCN1CC2([N+](=O)[O-])C=CC(=O)C([N+](=O)[O-])(C1)C2CC(=O)c1ccccc1 (stereo not given)	active: 28.2 µM	
CNS(=O)(=O)c1cn(CC(=O)Nc2ccc(C(C)=O)cc2)cc1S(=O)(=O)NC	inconclusive: 3.55 µM [inhibitor, single point]	
O=C(/C(=C/O)N=Nc1ccccc1)c1cccs1	inconclusive: 0.141 µM [inhibitor, full curve, poor fit]	
CCN(Cc1ccccc1)C(=O)C1CCN(Cc2ccc(SC)cc2)CC1	inconclusive: 89.1 µM [inhibitor, single point]	
O=C(COc1ccccc1[N+](=O)[O-])N/N=C/C=C/c1ccco1	inconclusive: 89.1 µM [inhibitor, single point]	
O=C(O)CCCCCN1C(=O)/C(=C\c2ccc(-c3ccc(Cl)cc3)o2)SC1=S		inconclusive: -66.8% [inhibitor]
O=C(OC(C(=O)NCc1ccc2c(c1)OCO2)c1ccncc1)c1ccc(Cl)nc1 (stereo not given)	inactive	
Cc1cccc(Cc2cnc(N3C(=N)SC(C)C3=O)s2)c1 (stereo not given)	inactive	
CCOC(=O)c1ccc2c(c1)C1C=CCC1C(C(=O)O)N2 (stereo not given)	active: 3.98 µM	
Cc1sc(NC(=O)Cc2ccc3c(c2)OCO3)nc1-c1ccc2c(c1)CCN2C(=O)c1cccc(F)c1	inactive	
S=c1[nH]nc(-c2ccco2)n1-c1ccccc1Cl	inconclusive: 79.4 µM [inhibitor, single point]	
CC(C)OC(=O)c1c(-c2ccccc2)c(-c2ccccc2)nn(C)c1=O	inactive	
O=C(CCCN1C(=O)S/C(=C\c2ccccc2)C1=O)NNC(=O)c1ccccc1O	inconclusive: 17.8 µM [inhibitor, full curve]	
CCOC(=O)CNS(=O)(=O)c1cc(-c2nn(C)c(=O)c3ccccc23)ccc1C	active: 35.5 µM	
CCc1ccc(C(=O)c2cn(CC(=O)Nc3ccc(OC)cc3)c3cc4c(cc3c2=O)OCO4)cc1	inconclusive: 39.8 µM [inhibitor, partial curve]	
COC(=O)c1ccc(COC(=O)C(CCSC)NC(=O)COc2ccccc2)cc1 (stereo not given)	inconclusive: 3.55 µM [inhibitor, single point]	
N#Cc1ccsc1NC(=O)CSc1ncnc2ccccc12	active: 35.5 µM	
O=C1CC(c2ccccc2)=NN1c1nc(-c2ccccc2)cs1	active: 31.6 µM	
O=C1c2c(O)cc(O)cc2OC(c2ccc(O)c(O)c2)C1O (stereo not given)	active: 1.89 µM	
O=C1c2c(O)cc(O)cc2O[C@H](c2ccc(O)c(O)c2)[C@H]1O	active: 3.16 µM	
COc1ccc(-n2ncc3c(=O)n(CC(C)=O)cnc32)cc1	inconclusive: 39.8 µM [inhibitor, single point]	
COc1ccc(-c2[nH]c(-c3ccc(F)cc3)nc2SCC(=O)NC2CCCC2)cc1	inconclusive: 89.1 µM [inhibitor, single point]	
NC(=O)COc1ccc(Nc2nnc(-c3ccc(O)cc3)c3ccccc23)cc1	inconclusive: 89.1 µM [inhibitor, single point]	

SMILES	Potency	activity change, negative = inhibition
C#CCOc1ccc(C2CC(=O)Nc3c2c(C)nn3-c2nc(C)cc(C)n2)cc1 (stereo not given)	inconclusive: 25.1 µM [inhibitor, full curve]	
Cc1ccccc1Cn1c(=O)n(Cc2ccco2)c(=O)c2ccccc21	inconclusive: 79.4 µM [inhibitor, partial curve, poor fit]	
O=C(CSC(=S)N1CCCC1)c1cc(Br)cc(Br)c1O	active: 50.1 µM	
COc1ccccc1N1C(=O)CC(N2CCc3ccccc32)C1=O (stereo not given)	inconclusive: 89.1 µM [inhibitor, single point]	
COc1ccc(C(=O)n2nc(-c3ccco3)nc2SC)cc1OC	inconclusive: 11.2 µM [inhibitor, partial curve]	
CC(C)C1Nc2ccc(C(=O)NCc3ccco3)cc2NC1=O (stereo not given)	inactive	
COc1cc(C(=O)ONC(=O)c2ccc(OC(F)F)cc2)cc(OC)c1OC	active: 31.6 µM	
COc1cc2c(=O)n(CCC(=O)NCC3CCCO3)c(=O)n(CC(=O)Nc3ccc(C)cc3C)c2cc1OC (stereo not given)	inconclusive: 89.1 µM [inhibitor, single point]	
CCOc1ccccc1COC(=O)c1cccc(-n2cnnn2)c1	inactive	
CCSc1cc(C)nc2c(-c3ccccc3)c(C)nn12	inconclusive: 63.1 µM [inhibitor, partial curve, poor fit]	
COc1ccc(/C=N/Nc2nc(-c3cccnc3)nc3ccccc23)cc1OC	inconclusive: 89.1 µM [inhibitor, single point]	
O=C(c1ccc(C(F)(F)F)cc1)C1CCCN(C(=O)CCc2cnccn2)C1 (stereo not given)	inactive	
NNc1ccccc1C(F)(F)F	active: 20 µM	
CCN(Cc1ccc2c(c1)OCO2)C(=O)/C=C/c1cccc(Br)c1	inactive	
COc1ccc(CC(=O)Nc2ccc(-c3noc(-c4ccccc4OC)n3)cc2)cc1	inconclusive: 12.6 µM [inhibitor, full curve]	
N/C(=N\OC(=O)c1ccc(F)cc1)c1cccc([N+](=O)[O-])c1	inconclusive: 1 µM [inhibitor, full curve, poor fit]	
CC(=O)Nc1nc2c(C)c(Cl)ccc2s1		inconclusive: -53.6% [inhibitor]
O=C(O)/C(=C\c1ccccc1OC(F)F)c1ccc(-c2ccccc2)cc1	active: 56.2 µM	
Cc1ccc(S(=O)(=O)N(CC(=O)NCCc2ccc(Cl)cc2)c2ccccc2C)cc1	inactive	
CCOc1ccccc1N(CC(=O)Nc1ccccc1C(=O)N1CCCC1)S(C)(=O)=O	inconclusive: 100 µM [inhibitor, single point]	
COc1cccc(N2CCN(C(=O)c3cccn3-c3nnc(N4CCCC4)s3)CC2)c1	inactive	
COc1ccc(CCNC(=O)COc2cc(O)c3c(c2)OC(C)(C)CC3=O)cc1OC	inconclusive: 89.1 µM [inhibitor, single point]	
FC(F)(F)COc1cc(-c2nnc(SCc3ccccc3)n2Cc2ccco2)cc(OCC(F)(F)F)n1	inconclusive: 39.8 µM [inhibitor, single point]	
COc1ccc(C(=O)CSc2nnc(-c3cc(C)on3)o2)cc1	active: 11.2 µM	

Two entries picked at random from the list so far:
SMILES	Potency	activity change, negative = inhibition
CCN(Cc1ccccc1)C(=O)C1CCN(Cc2ccc(SC)cc2)CC1	inconclusive: 89.1 µM [inhibitor, single point]	
O=C(/C(=C/O)N=Nc1ccccc1)c1cccs1	inconclusive: 0.141 µM [inhibitor, full curve, poor fit]	

(further entries)

SMILES	Potency	activity change, negative = inhibition
Cc1nc(S(=O)(=O)Cc2ccccc2)nc2c1CCC2	inconclusive: 44.7 µM [inhibitor, partial curve]	
Nc1cc(C(=O)N/N=C/c2cccc([N+](=O)[O-])c2)n[nH]c1=O		inconclusive: -51.4% [inhibitor]
COc1cc(/C=C/c2nc3ccc([N+](=O)[O-])cc3s2)ccc1OCC(=O)O	inconclusive: 79.4 µM [inhibitor, partial curve]	
Cc1ccc(Cc2cncc(O)c2)cc1S(=O)(=O)O	inconclusive: 15.8 µM [inhibitor, full curve, poor fit]	
CSc1ncc(CN2CCCC(C(=O)Nc3ccc(-c4ccco4)cc3)C2)cn1 (stereo not given)	inconclusive: 79.4 µM [inhibitor, single point]	
COCc1cc(C)nc2sc(C(=O)OC)c(N)c12	inconclusive: 89.1 µM [inhibitor, single point]	
CCCCCC(=O)Nc1cccc(C2=NOC3(C2)C[C@@H](C(N)=O)N(C(=O)c2cc([N+](=O)[O-])cc([N+](=O)[O-])c2)C3)c1 (stereo not given in full)	inactive	
CCOc1ccc(C(C)=O)cc1CSc1nnnn1-c1ccc(O)cc1	inconclusive: 1.12 µM [inhibitor, full curve, poor fit]	
CCOC(=O)N1CCC(N2CCCC(CO)(Cc3ccccc3C)C2)CC1 (stereo not given)	inconclusive: 3.16 µM [inhibitor, partial curve]	
CCOc1ccc(NS(=O)(=O)c2ccc(NC(=S)NC(=O)C(C)C)cc2)cc1	inconclusive: 39.8 µM [inhibitor, single point]	
CC(=O)c1ccc(NC(=O)C2CCC(CNS(=O)(=O)c3cccs3)CC2)cc1 (stereo not given)	inconclusive: 89.1 µM [inhibitor, single point]	
CN(C)c1ccc(NC(=O)COC(=O)CCC(=O)c2ccc(F)cc2)cc1	inconclusive: 100 µM [inhibitor, single point]	
O=C(N/N=C\c1ccc([N+](=O)[O-])s1)c1cncc(Br)c1	inconclusive: 25.1 µM [inhibitor, full curve, poor fit]	
O=C(O)c1cccnc1SCC(=O)N1CCCc2ccccc21	inconclusive: 10 µM [inhibitor, full curve, poor fit]	
C/C(=N\Nc1ccc(Cl)c(C(=O)O)c1)c1ccc(Br)s1	active: 50.1 µM	
CC(=O)Nc1ccc2nc(NC(=O)c3cccs3)sc2c1		inconclusive: -51.9% [inhibitor]
CCn1c(C(=O)NCc2cc(Br)ccc2OC)cc2oc3ccccc3c21	inactive	
O=c1[nH]c(/C=C\c2ccc(O)c(O)c2)nc(O)c1[N+](=O)[O-]	active: 25.1 µM	
Cc1ccc(C(=O)OCC(=O)Nc2c(Cl)cc(S(N)(=O)=O)cc2Cl)o1	inconclusive: 35.5 µM [inhibitor, single point]	
Cc1ccc(-c2csc(=Nc3cccnc3)n2CCCn2ccnc2)cc1C	inconclusive: 89.1 µM [inhibitor, single point]	
Cc1ccc(NC(=O)N2CCN(c3cc(-c4noc(C)n4)ccc3C)CC2)c(C)c1	inconclusive: 89.1 µM [inhibitor, single point]	
Cc1ccccc1OCC(=O)NCCCNC(=O)c1ccco1	inactive	

2 consecutive compounds from above, quoted:
SMILES	Potency	activity change, negative = inhibition
CN(C)c1ccc(NC(=O)COC(=O)CCC(=O)c2ccc(F)cc2)cc1	inconclusive: 100 µM [inhibitor, single point]	
O=C(N/N=C\c1ccc([N+](=O)[O-])s1)c1cncc(Br)c1	inconclusive: 25.1 µM [inhibitor, full curve, poor fit]	
